Results are given in words; binding and its absence hold for the method and conditions named. Binding seen in cells or lysates may run through a third protein. A yes stands for co-enrichment or nearness to the bait. Other partners may have been found. Sequences can lack the tags named with a protein.

Our source for the binding values is paper PMC11055677.

What all share (experiment): affinity purification with mass spectrometry; FLAG-HA tandem purification from high-salt (400 mM KCl) nuclear extracts of HeLa S3 stably expressing the FH-tagged bait, dialysed to KETNG150; eluate analysed by mass spectrometry; empty vector as control
Test [1] concerns the target T1, FLAG-HA-SPATA5, stably expressed in HeLa S3 (human) (UniProt Q8NB90).
T1 sequence: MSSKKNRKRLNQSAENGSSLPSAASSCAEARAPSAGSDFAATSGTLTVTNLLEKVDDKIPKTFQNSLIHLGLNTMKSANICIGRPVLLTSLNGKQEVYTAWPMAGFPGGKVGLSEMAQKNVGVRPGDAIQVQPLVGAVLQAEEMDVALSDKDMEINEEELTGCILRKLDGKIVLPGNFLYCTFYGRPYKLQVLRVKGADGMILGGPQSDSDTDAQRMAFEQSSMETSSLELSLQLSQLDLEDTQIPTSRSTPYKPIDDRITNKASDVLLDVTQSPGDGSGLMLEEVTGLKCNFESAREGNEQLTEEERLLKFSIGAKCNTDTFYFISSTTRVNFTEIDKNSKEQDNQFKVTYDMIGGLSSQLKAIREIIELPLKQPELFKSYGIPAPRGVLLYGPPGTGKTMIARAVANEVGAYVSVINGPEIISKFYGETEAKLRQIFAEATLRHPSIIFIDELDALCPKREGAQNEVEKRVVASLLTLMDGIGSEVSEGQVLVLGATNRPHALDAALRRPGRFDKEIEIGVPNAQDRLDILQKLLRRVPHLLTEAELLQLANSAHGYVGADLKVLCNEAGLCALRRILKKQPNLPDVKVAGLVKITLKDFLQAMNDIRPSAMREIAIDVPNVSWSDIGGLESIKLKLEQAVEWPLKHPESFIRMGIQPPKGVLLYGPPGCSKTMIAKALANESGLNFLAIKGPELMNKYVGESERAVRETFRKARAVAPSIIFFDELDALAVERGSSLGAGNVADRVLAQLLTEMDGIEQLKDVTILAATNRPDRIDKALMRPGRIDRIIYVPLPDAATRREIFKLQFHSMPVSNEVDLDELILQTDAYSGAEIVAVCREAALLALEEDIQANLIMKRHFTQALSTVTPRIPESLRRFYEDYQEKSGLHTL

Test [2] concerns the target T2, FLAG-HA-SPATA5L1, stably expressed in HeLa S3 (human) (UniProt Q9BVQ7).
T2 sequence: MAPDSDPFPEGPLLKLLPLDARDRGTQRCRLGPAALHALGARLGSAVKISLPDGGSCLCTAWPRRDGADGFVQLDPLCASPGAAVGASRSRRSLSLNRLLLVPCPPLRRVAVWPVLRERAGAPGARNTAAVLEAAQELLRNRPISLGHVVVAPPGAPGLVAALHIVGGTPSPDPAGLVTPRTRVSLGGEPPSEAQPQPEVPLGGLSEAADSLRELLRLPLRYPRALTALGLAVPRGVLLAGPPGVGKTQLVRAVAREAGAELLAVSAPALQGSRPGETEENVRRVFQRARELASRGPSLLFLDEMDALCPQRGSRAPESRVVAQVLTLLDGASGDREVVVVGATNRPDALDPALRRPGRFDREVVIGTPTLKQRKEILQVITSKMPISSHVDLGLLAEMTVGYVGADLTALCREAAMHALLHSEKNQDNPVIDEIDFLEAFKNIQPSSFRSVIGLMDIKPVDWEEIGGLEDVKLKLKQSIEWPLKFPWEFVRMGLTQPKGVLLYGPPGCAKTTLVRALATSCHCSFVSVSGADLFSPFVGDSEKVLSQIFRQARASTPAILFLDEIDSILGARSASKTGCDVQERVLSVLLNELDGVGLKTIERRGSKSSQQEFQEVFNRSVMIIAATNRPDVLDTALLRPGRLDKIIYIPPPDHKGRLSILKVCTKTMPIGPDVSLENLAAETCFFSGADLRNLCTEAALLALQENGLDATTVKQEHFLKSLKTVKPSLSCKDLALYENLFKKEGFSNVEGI

Test [3] concerns the target T3, FLAG-HA-POLD3, stably expressed in HeLa S3 (human) (UniProt Q15054).
T3 sequence: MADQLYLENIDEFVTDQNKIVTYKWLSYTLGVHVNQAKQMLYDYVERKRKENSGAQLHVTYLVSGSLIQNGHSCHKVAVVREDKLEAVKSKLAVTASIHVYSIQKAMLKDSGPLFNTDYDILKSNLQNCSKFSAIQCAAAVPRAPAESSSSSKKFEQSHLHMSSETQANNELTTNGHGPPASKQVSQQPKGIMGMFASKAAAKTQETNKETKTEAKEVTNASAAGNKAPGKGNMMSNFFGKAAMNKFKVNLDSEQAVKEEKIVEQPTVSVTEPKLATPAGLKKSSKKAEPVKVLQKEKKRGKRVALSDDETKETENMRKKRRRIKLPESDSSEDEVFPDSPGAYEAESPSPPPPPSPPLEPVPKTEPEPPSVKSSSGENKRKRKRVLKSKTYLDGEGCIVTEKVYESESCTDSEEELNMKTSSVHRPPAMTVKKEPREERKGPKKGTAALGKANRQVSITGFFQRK

B1: POLD3 (HeLa S3 nuclear extract) (protein, UniProt Q15054 1-466)
chain: MADQLYLENIDEFVTDQNKIVTYKWLSYTLGVHVNQAKQMLYDYVERKRKENSGAQLHVTYLVSGSLIQNGHSCHKVAVVREDKLEAVKSKLAVTASIHVYSIQKAMLKDSGPLFNTDYDILKSNLQNCSKFSAIQCAAAVPRAPAESSSSSKKFEQSHLHMSSETQANNELTTNGHGPPASKQVSQQPKGIMGMFASKAAAKTQETNKETKTEAKEVTNASAAGNKAPGKGNMMSNFFGKAAMNKFKVNLDSEQAVKEEKIVEQPTVSVTEPKLATPAGLKKSSKKAEPVKVLQKEKKRGKRVALSDDETKETENMRKKRRRIKLPESDSSEDEVFPDSPGAYEAESPSPPPPPSPPLEPVPKTEPEPPSVKSSSGENKRKRKRVLKSKTYLDGEGCIVTEKVYESESCTDSEEELNMKTSSVHRPPAMTVKKEPREERKGPKKGTAALGKANRQVSITGFFQRK
B1: the binding entry in test [1] and in test [2] was “binds” throughout.

B2: RFC1 (HeLa S3 nuclear extract) (protein, UniProt P35251 1-1148)
chain: MDIRKFFGVIPSGKKLVSETVKKNEKTKSDEETLKAKKGIKEIKVNSSRKEDDFKQKQPSKKKRIIYDSDSESEETLQVKNAKKPPEKLPVSSKPGKISRQDPVTYISETDEEDDFMCKKAASKSKENGRSTNSHLGTSNMKKNEENTKTKNKPLSPIKLTPTSVLDYFGTGSVQRSNKKMVASKRKELSQNTDESGLNDEAIAKQLQLDEDAELERQLHEDEEFARTLAMLDEEPKTKKARKDTEAGETFSSVQANLSKAEKHKYPHKVKTAQVSDERKSYSPRKQSKYESSKESQQHSKSSADKIGEVSSPKASSKLAIMKRKEESSYKEIEPVASKRKENAIKLKGETKTPKKTKSSPAKKESVSPEDSEKKRTNYQAYRSYLNREGPKALGSKEIPKGAENCLEGLIFVITGVLESIERDEAKSLIERYGGKVTGNVSKKTNYLVMGRDSGQSKSDKAAALGTKIIDEDGLLNLIRTMPGKKSKYEIAVETEMKKESKLERTPQKNVQGKRKISPSKKESESKKSRPTSKRDSLAKTIKKETDVFWKSLDFKEQVAEETSGDSKARNLADDSSENKVENLLWVDKYKPTSLKTIIGQQGDQSCANKLLRWLRNWQKSSSEDKKHAAKFGKFSGKDDGSSFKAALLSGPPGVGKTTTASLVCQELGYSYVELNASDTRSKSSLKAIVAESLNNTSIKGFYSNGAASSVSTKHALIMDEVDGMAGNEDRGGIQELIGLIKHTKIPIICMCNDRNHPKIRSLVHYCFDLRFQRPRVEQIKGAMMSIAFKEGLKIPPPAMNEIILGANQDIRQVLHNLSMWCARSKALTYDQAKADSHRAKKDIKMGPFDVARKVFAAGEETAHMSLVDKSDLFFHDYSIAPLFVQENYIHVKPVAAGGDMKKHLMLLSRAADSICDGDLVDSQIRSKQNWSLLPAQAIYASVLPGELMRGYMTQFPTFPSWLGKHSSTGKHDRIVQDLALHMSLRTYSSKRTVNMDYLSLLRDALVQPLTSQGVDGVQDVVALMDTYYLMKEDFENIMEISSWGGKPSPFSKLDPKVKAAFTRAYNKEAHLTPYSLQAIKASRHSTSPSLDSEYNEELNEDDSQSDEKDQDAIETDAMIKKKTKSSKPSKPEKDKEPRKGKGKSSKK
Turning to B2, the binding result in test [1] and in test [2] was “binds” each time.

B3: CINP (HeLa S3 nuclear extract) (protein, UniProt Q9BW66 1-212)
chain: MEAKTLGTVTPRKPVLSVSARKIKDNAADWHNLILKWETLNDAGFTTANNIANLKISLLNKDKIELDSSSPASKENEEKVCLEYNEELEKLCEELQATLDGLTKIQVKMEKLSSTTKGICELENYHYGEESKRPPLFHTWPTTHFYEVSHKLLEMYRKELLLKRTVAKELAHTGDPDLTLSYLSMWLHQPYVESDSRLHLESMLLETGHRAL
For B3, the binding result in test [1] and in test [2] was “binds” each time.

B4: C1orf109 (HeLa S3 nuclear extract) (protein, UniProt Q9NX04 1-203)
chain: MTQDRPLLAVQEALKKCFPVVEEQQGLWQSALRDCQPLLSSLSNLAEQLQAAQNLRFEDVPALRAFPDLKERLRRKQLVAGDIVLDKLGERLAILLKVRDMVSSHVERVFQIYEQHADTVGIDAVLQPSAVSPSVADMLEWLQDIERHYRKSYLKRKYLLSSIQWGDLANIQALPKAWDRISKDEHQDLVQDILLNVSFFLEE
Turning to B4, the binding result in test [1] and in test [2] was “binds” each time.

B5: REV1 (HeLa S3 nuclear extract) (protein, UniProt Q9UBZ9 1-1251)
chain: MRRGGWRKRAENDGWETWGGYMAAKVQKLEEQFRSDAAMQKDGTSSTIFSGVAIYVNGYTDPSAEELRKLMMLHGGQYHVYYSRSKTTHIIATNLPNAKIKELKGEKVIRPEWIVESIKAGRLLSYIPYQLYTKQSSVQKGLSFNPVCRPEDPLPGPSNIAKQLNNRVNHIVKKIETENEVKVNGMNSWNEEDENNDFSFVDLEQTSPGRKQNGIPHPRGSTAIFNGHTPSSNGALKTQDCLVPMVNSVASRLSPAFSQEEDKAEKSSTDFRDCTLQQLQQSTRNTDALRNPHRTNSFSLSPLHSNTKINGAHHSTVQGPSSTKSTSSVSTFSKAAPSVPSKPSDCNFISNFYSHSRLHHISMWKCELTEFVNTLQRQSNGIFPGREKLKKMKTGRSALVVTDTGDMSVLNSPRHQSCIMHVDMDCFFVSVGIRNRPDLKGKPVAVTSNRGTGRAPLRPGANPQLEWQYYQNKILKGKAADIPDSSLWENPDSAQANGIDSVLSRAEIASCSYEARQLGIKNGMFFGHAKQLCPNLQAVPYDFHAYKEVAQTLYETLASYTHNIEAVSCDEALVDITEILAETKLTPDEFANAVRMEIKDQTKCAASVGIGSNILLARMATRKAKPDGQYHLKPEEVDDFIRGQLVTNLPGVGHSMESKLASLGIKTCGDLQYMTMAKLQKEFGPKTGQMLYRFCRGLDDRPVRTEKERKSVSAEINYGIRFTQPKEAEAFLLSLSEEIQRRLEATGMKGKRLTLKIMVRKPGAPVETAKFGGHGICDNIARTVTLDQATDNAKIIGKAMLNMFHTMKLNISDMRGVGIHVNQLVPTNLNPSTCPSRPSVQSSHFPSGSYSVRDVFQVQKAKKSTEEEHKEVFRAAVDLEISSASRTCTFLPPFPAHLPTSPDTNKAESSGKWNGLHTPVSVQSRLNLSIEVPSPSQLDQSVLEALPPDLREQVEQVCAVQQAESHGDKKKEPVNGCNTGILPQPVGTVLLQIPEPQESNSDAGINLIALPAFSQVDPEVFAALPAELQRELKAAYDQRQRQGENSTHQQSASASVPKNPLLHLKAAVKEKKRNKKKKTIGSPKRIQSPLNNKLLNSPAKTLPGACGSPQKLIDGFLKHEGPPAEKPLEELSASTSGVPGLSSLQSDPAGCVRPPAPNLAGAVEFNDVKTLLREWITTISDPMEEDILQVVKYCTDLIEEKDLEKLDLVIKYMKRLMQQSVESVWNMAFDFILDNVQVVLQQTYGSTLKVT
As for B5, in test [3], the binding entry is given as “binds”.
